Source: the supplement of paper PMC12819154, “High-throughput peptide-centric local stability assay extends protein–ligand identification to membrane proteins, tissues and bacteria” (Nature Structural & Molecular Biology, 2025)
The list shows a part of the results. Most entries show no effect beyond the scatter of the controls.

Chains of the proteins cited; added tags and fusions are not shown. Lines headed by an entry give the natural chain unless they say otherwise; changes in a name come on top.
UniProt Q9CYR0: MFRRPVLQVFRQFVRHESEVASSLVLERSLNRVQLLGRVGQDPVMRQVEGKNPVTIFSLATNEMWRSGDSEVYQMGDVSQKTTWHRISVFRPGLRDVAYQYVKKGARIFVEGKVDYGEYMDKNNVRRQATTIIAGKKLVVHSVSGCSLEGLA
UniProt Q9CXK8: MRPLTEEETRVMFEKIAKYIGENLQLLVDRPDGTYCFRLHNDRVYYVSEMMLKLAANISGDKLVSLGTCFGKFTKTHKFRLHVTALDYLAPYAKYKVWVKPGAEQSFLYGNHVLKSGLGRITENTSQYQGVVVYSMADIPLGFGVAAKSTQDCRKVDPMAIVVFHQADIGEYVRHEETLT
UniProt Q9D0D5: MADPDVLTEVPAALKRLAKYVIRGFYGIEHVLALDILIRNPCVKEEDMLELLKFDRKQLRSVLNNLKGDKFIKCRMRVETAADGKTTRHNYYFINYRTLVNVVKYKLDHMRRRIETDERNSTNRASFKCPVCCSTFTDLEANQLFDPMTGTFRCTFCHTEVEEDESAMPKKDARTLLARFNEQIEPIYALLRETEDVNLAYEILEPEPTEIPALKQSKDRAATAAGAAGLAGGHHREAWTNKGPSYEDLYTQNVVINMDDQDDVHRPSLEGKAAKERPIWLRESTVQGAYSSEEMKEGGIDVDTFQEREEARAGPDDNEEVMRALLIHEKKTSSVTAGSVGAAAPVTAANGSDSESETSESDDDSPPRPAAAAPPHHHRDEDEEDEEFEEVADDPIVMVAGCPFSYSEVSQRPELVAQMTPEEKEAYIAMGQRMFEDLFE
UniProt Q9CZX0: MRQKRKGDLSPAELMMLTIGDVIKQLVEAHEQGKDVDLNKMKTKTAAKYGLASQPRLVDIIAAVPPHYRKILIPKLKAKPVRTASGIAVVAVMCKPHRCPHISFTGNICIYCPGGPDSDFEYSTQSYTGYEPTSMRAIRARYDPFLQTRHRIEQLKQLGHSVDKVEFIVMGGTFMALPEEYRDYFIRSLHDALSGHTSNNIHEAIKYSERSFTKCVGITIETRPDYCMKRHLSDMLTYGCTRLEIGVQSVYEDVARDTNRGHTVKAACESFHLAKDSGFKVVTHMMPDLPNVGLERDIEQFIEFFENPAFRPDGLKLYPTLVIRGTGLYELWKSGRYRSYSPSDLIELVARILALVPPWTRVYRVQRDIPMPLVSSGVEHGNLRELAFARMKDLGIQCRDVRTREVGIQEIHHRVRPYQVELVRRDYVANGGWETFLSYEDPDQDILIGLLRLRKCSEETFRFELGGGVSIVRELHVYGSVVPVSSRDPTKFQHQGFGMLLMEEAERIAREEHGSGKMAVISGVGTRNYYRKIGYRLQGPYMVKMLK
UniProt Q9CRB9: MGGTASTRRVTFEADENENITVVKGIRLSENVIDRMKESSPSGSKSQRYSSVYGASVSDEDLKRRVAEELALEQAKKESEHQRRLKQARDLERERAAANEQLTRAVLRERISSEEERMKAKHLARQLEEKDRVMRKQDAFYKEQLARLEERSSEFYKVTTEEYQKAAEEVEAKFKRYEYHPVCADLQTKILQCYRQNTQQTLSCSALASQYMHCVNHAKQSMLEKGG

Compound: CN[C@@H]1C[C@H]2O[C@@](C)([C@@H]1OC)n1c3ccccc3c3c4c(c5c6ccccc6n2c5c31)C(=O)NC4 [staurosporine]
Assay: log2 fold change of tryptic peptide abundance, ligand vs vehicle (limited proteolysis) (log2 ratio); higher = more trypsin-susceptible (destabilized)
Conditions: ligand concentration: 20 uM; sample: mouse liver crude lysate; replicate design: treated separately

Row | Target | log2 fold change
1 | UniProt Q9CYR0 (peptide sequence: DVAYQYVKK, peptide start residue: 96) | -0.532
2 | UniProt Q9CXK8 (peptide sequence: VWVKPGAEQSFLYGNHVLK, peptide start residue: 97) | 0.238
3 | UniProt Q9D0D5 (peptide sequence: DRAATAAGAAGLAGGHHR, peptide start residue: 219) | -0.631
4 | UniProt Q9CZX0 (peptide sequence: GTGLYELWK, peptide start residue: 325) | 0.363
5 | UniProt Q9CRB9 (peptide sequence: KQDAFYK, peptide start residue: 136) | -0.195
